Data as given in PubChem BioAssay AID686937 (Drosophila RNAi Screening Center, 2013)
Assay: 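Knock-downs that reduce output of a secreted reporter enzyme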 (primary screen). Cell system: Drosophila S2 cells expressing secreted horseradish peroxidase. Reagent: long dsRNA against Drosophila genes. Duration: about 5.5 days (5 days dsRNA, then 12 h reporter induction). Challenge: reporter expression induced after 5 days of dsRNA, read 12 h later; inducer not stated. Detection: 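After 5 days of dsRNA and 12 h of reporter induction, medium peroxidase read by chemiluminescence and scored as per-plate z-score; higher values mean more reporter released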. Reading the numbers: z-score: higher = more reporter secreted into medium.
The screen tested about 23,000 reagents; below is an unselected part of those that have a named target and a result. 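Reduced-secretion tags in replicate 1 do not always agree with the z-scores; no criterion for assigning the tags was given.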 Names joined by + are all predicted targets of the reagent. Further read-outs or replicates are left out here. Not stated in the record: the amount of reagent.

| gene | DRSC id | z-score, replicate 1 |
| --- | --- | --- |
| Vps15 | DRSC16553 | -0.13 |
| CG30154 | DRSC05889 | 0.11 |
| btsz | DRSC14982 | -0.04 |
| btsz | DRSC15222 | -2.46 |
| btsz | DRSC15320 | -0.26 |
| btsz | DRSC16231 | 0.18 |
| mei-W68 | DRSC07649 | 0.48 |
| CG31327 | DRSC13019 | 0.23 |
| dpa | DRSC07604 | 0.05 |
| Xbp1 | DRSC04553 | 0.74 |
| Xbp1 | DRSC21624 | 0.02 |
| CG3748 | DRSC02716 | 0.39 |
| Lsd-2 | DRSC20143 | -5.8 |
| CG8520 | DRSC07206 | 0.27 |
| cutlet | DRSC00284 | -0.07 |
| PPO2 | DRSC07102 | -0.03 |
| CR13656 | DRSC13705 | 0.09 |
| CR13656 | DRSC14656 | 0.19 |
| CG43373 | DRSC09869 | 0.38 |
| CG43373 | DRSC09885 | -0.04 |
| CG5707 | DRSC08573 | 0.22 |
| CG3842 | DRSC18326 | 0.46 |
| SERCA | DRSC04600 | -0.52 |
| CG33272 | DRSC09116 | -2.05 |
| CG8519 | DRSC10985 | 0.36 |
| VAChT + ChAT | DRSC13312 | 0.47 |
| CG11350 | DRSC08181 | -1.74 |
| CG31915 | DRSC03000 | 0.24 |
| Hk | DRSC17638 | -1 |
| Hk | DRSC17639 | -1.86 |
| Hk | DRSC18138 | -0.14 |
| Hk | DRSC18674 | -0.87 |
| CG12177 | DRSC19437 | 0.1 |
| CG12177 | DRSC21524 | 0.26 |
